Results are given in words; binding and its absence hold for the method and conditions named. Some entries that bind do so weakly or less than the wild type.
Columns and labels:
[1] = target: T1, GAL4 DB::NPR1 fusion protein (full-length Arabidopsis NPR1 bait) (Arabidopsis) (UniProt P04386+P93002); assay: yeast two-hybrid screen, GAL4 DB::NPR1 bait, HIS3 and lacZ reporters, retested against pMC86 alone
[2] = target: T1, GAL4 DB::NPR1 fusion protein (full-length Arabidopsis NPR1 bait) (Arabidopsis); assay: yeast two-hybrid

By UniProt entry, the sequences of proteins in these tests, tags left out. Where a name states a change or a piece, a line headed by the entry shows the natural chain unless it says otherwise.
UniProt P04386: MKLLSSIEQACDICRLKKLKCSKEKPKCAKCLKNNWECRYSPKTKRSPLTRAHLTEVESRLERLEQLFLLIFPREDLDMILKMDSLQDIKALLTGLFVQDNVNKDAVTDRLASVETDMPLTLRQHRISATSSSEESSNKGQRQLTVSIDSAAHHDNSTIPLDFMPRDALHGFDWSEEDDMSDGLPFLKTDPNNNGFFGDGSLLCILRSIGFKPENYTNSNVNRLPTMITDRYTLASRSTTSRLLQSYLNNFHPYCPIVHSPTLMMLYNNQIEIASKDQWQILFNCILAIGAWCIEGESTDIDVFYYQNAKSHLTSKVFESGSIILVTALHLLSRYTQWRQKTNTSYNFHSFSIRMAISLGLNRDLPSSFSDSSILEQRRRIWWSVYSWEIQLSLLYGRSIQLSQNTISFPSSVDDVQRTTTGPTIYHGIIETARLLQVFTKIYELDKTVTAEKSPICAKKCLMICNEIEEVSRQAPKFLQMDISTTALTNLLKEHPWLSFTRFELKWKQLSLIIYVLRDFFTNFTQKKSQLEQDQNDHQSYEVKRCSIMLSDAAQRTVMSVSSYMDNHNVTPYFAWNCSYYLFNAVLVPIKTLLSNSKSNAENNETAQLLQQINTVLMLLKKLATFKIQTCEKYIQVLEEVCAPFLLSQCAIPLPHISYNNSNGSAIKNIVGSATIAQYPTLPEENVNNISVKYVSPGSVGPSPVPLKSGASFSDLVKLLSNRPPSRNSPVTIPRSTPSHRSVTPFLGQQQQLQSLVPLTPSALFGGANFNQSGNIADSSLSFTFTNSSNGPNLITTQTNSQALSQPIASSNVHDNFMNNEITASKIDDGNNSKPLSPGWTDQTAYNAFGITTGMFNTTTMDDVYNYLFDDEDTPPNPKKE
UniProt P93002: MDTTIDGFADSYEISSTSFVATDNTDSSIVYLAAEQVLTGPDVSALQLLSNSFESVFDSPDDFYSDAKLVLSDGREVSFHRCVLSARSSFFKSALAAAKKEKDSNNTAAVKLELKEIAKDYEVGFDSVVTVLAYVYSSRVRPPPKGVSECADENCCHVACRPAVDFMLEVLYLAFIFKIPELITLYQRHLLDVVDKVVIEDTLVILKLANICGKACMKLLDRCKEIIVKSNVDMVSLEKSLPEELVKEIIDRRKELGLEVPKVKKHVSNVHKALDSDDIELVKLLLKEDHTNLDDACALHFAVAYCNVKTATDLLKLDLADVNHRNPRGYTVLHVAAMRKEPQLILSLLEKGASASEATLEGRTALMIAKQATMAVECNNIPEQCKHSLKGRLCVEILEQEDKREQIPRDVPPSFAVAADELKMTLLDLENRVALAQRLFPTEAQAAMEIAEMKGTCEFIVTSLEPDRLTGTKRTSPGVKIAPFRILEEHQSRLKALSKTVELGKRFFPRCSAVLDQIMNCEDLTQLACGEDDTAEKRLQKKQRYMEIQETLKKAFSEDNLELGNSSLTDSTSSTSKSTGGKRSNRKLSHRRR

Row | binding [1] | binding [2] | Binder
1 | binds | binds | PNI (proline-rich NPR1 interactor), rice cDNA library clone in pAD-GAL4 (protein, not shown: large carriers) MDATTTDATTAKRKRPAASDIADDAPTTVDEVSDAEVEEFYAILRRMRDATRRLGARPPPPRAPAWRPSFSWEDFADAPPKQAPPPPQQPADHERVAENATPPRRPAPGLDLNVEPPSDAPATPRSARAPA
2 | binds | binds | MN1, rice bZIP protein, original cDNA library clone in pAD-GAL4 (protein, not shown: large carriers) KNHQLENGHSGAVMASNSSDRSDRSDKLMDQKTMRRLAQNREAARKSRLRKKAYVQQLESSKLKLAQLEQELQKARQQGIFISSSGDQTHAMSGNGALTFDLEYTRWLEEQNKQINELRTAVNAHASDSDLRLIVDGIMAHYDEVFKVKGVAAKADVFHILSGMWKTPAERCFLWLGGFRPSELLKLLANHLEPLTEQQLLGLNNLQESSQQAEDALSQGMEALQQSLADTLAGSLASSGSSGNVANYMGQMAMAMGKLGTLENFLCQADNLRQQTLHQMQRILTIRQASRALLAIHDYFSRLRALSSLWLARPRE

Source: US6995306
